Data source: PubChem BioAssay AID602196 (INSERM, 2012)
The deposit covers about 23,000 reagents; shown is an unselected part. Of all reagents, 455 (2%) were called active. 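Active includes both protection and sensitisation; some change values fall well beyond the stated -50 to +50 range.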 Not given: the amount of reagent.

Screen: 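Genes whose knock-down alters cisplatin killing of lung cancer cells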
System: human A549 lung cancer cells
Reagent: siRNA pair against human genes
Duration: 48 h transfection before cisplatin; time from cisplatin to read-out not stated
Conditions: cisplatin at a dose killing half of control-siRNA cells; exact dose and duration not given
Read-out: 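Shift in cisplatin death relative to control siRNA, from -50 (all cells die) to +50 (no cells die); siRNAs harmful on their own scored 0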
Reading the numbers: two-siRNA summed score (-2 to +2): higher = both siRNAs protect from cisplatin killing; -2 means both sensitise; mean protection from cisplatin (shift in death) and protection from cisplatin (shift in death), siRNA C and protection from cisplatin (shift in death), siRNA D: higher = protection from cisplatin killing
Hit rule: 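Each siRNA scores 0 if harmful alone by LDH or WST-1, otherwise +1 if it reduces and -1 if it increases cisplatin killing; a gene is active when both siRNAs agree (sum +2 or -2)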
Calls: active = both siRNAs shift cisplatin killing the same way; inactive = no consistent shift, or siRNA harmful alone

| gene knocked down | two-siRNA summed score (-2 to +2) | mean protection from cisplatin (shift in death) (%) | protection from cisplatin (shift in death), siRNA C (%) | protection from cisplatin (shift in death), siRNA D (%) | activity call |
| --- | --- | --- | --- | --- | --- |
| GP5 | 0 | 0.7 | 0.9 | 0.6 | inactive |
| MEX3C | 0 | 3.5 | -3.4 | 10.4 | inactive |
| TMEM184A | 0 | 12.2 | 4.6 | 19.8 | inactive |
| LOC388333 | 0 | 5.8 | -2.8 | 14.5 | inactive |
| TUSC8 | 0 | 8.7 | 13.4 | 3.9 | inactive |
| HSPA9 | 0 | 2.8 | -0.9 | 6.6 | inactive |
| TSPOAP1 | 0 | -7.6 | -27.3 | 12 | inactive |
| KMT5B | 0 | -9.2 | -15.1 | -3.3 | inactive |
| SPPL2C | 0 | 0.2 | -3.6 | 4.1 | inactive |
| DDX10 | 0 | -6.4 | -8.4 | -4.3 | inactive |
| LOC388107 | 0 | 9.9 | 14.8 | 5 | inactive |
| LOC390828 | 0 | 8.5 | 10.6 | 6.4 | inactive |
| MATK | 1 | 23 | 27.1 | 18.9 | inactive |
| DLGAP4 | 0 | -4.5 | -2.2 | -6.7 | inactive |
| RASL10B | -1 | -10.6 | -12 | -9.1 | inactive |
| LOC401136 | 0 | 7.2 | 8.9 | 5.5 | inactive |
| PIGO | 0 | 18.7 | 2.8 | 34.6 | inactive |
| PDGFD | -1 | -3.2 | -16.9 | 10.5 | inactive |
| PRAME | 0 | 2.3 | 5.1 | -0.4 | inactive |
| LOC389630 | 0 | 10.7 | 13.1 | 8.3 | inactive |
| UFL1 | 1 | 10.8 | 16.5 | 5.1 | inactive |
| BEND3 | 1 | 2.6 | -5.7 | 11 | inactive |
| EFCC1 | 0 | -0.4 | 4.2 | -5 | inactive |
| RHBDL3 | -1 | -6.4 | -23.4 | 10.7 | inactive |
| POMT1 | 0 | 5.5 | 18.9 | -7.9 | inactive |
| TARDBP | 0 | 9.1 | 15.4 | 2.7 | inactive |
| YIPF3 | 0 | 7.2 | 6.4 | 8 | inactive |
| LOC440084 | 0 | 5.3 | 6.9 | 3.8 | inactive |
| AVO3 | 0 | 14.5 | 15.8 | 13.1 | inactive |
| SP140L | -1 | -12.3 | 6.5 | -31.1 | inactive |
| NEURL1 | 0 | 4.7 | 6.8 | 2.7 | inactive |
| CNN3 | 0 | 3.2 | 17 | -10.6 | inactive |
| CENPW | 0 | 9.6 | 11.8 | 7.5 | inactive |
| TNIP2 | 0 | -9.2 | -17.8 | -0.6 | inactive |
| GRIA3 | -2 | -28.2 | -23.2 | -33.3 | active |
| PRMT5 | 1 | 11.9 | 18.6 | 5.1 | inactive |
| LOC388587 | 0 | -1.8 | -14.7 | 11.1 | inactive |
| AATF | 0 | -23.1 | -41.9 | -4.4 | inactive |
| FERMT1 | 0 | 4.6 | 1.4 | 7.7 | inactive |
| C19orf25 | 0 | -1.4 | -5.7 | 3 | inactive |
| SLC25A4 | -1 | -6.7 | 5.4 | -18.8 | inactive |
| REC8 | -1 | -15.4 | -5 | -25.9 | inactive |
| LOC400742 | 0 | 6.9 | 3.8 | 10.1 | inactive |
| IGFL2 | 0 | 6.8 | 17.1 | -3.6 | inactive |
| RNF31 | -1 | -21.8 | -29.1 | -14.4 | inactive |

The list goes on (2 carried over from the part before).
| gene knocked down | two-siRNA summed score (-2 to +2) | mean protection from cisplatin (shift in death) (%) | protection from cisplatin (shift in death), siRNA C (%) | protection from cisplatin (shift in death), siRNA D (%) | activity call |
| --- | --- | --- | --- | --- | --- |
| IGFL2 | 0 | 6.8 | 17.1 | -3.6 | inactive |
| RNF31 | -1 | -21.8 | -29.1 | -14.4 | inactive |
| DRD2 | -1 | -2 | 8.5 | -12.6 | inactive |
| TMEM220 | 0 | 4.3 | -1.3 | 9.8 | inactive |
| LOC401202 | 0 | 10.4 | 0.4 | 20.4 | inactive |
| OR10A4 | 1 | 20.9 | 18.6 | 23.2 | inactive |
| ANO5 | 1 | 8.3 | 4.6 | 11.9 | inactive |
| LOC388684 | 0 | 9.2 | 3.5 | 15 | inactive |
| NR2F1 | 1 | 15.1 | -3.2 | 33.3 | inactive |
| BORCS7 | 0 | -1.8 | 0.3 | -4 | inactive |
| CSTF2T | 0 | 5.6 | 8.3 | 2.9 | inactive |
| BARHL2 | 1 | 10.6 | 9.8 | 11.3 | inactive |
| SPRED1 | 1 | 19.2 | 24.1 | 14.3 | inactive |
| LOC442251 | 0 | 4.7 | 6.5 | 2.8 | inactive |
| LOC388727 | 0 | 12.9 | 15.6 | 10.1 | inactive |
| DHRS1 | 0 | 2.9 | 27.8 | -21.9 | inactive |
| LOC441231 | 1 | 8.7 | -5 | 22.5 | inactive |
| HTRA1 | 0 | -14.5 | -19.1 | -9.9 | inactive |
| SHPK | 0 | -1.8 | 4.8 | -8.4 | inactive |
| NBPF11 | 0 | 7.1 | 6.5 | 7.8 | inactive |
| LOC441959 | 1 | 9.6 | 14.8 | 4.4 | inactive |
| NUSAP1 | 0 | 2.4 | -2.8 | 7.7 | inactive |
| DAPP1 | 0 | -4.5 | -3.2 | -5.7 | inactive |
| BBS1 | 0 | 6.3 | 8.6 | 4.1 | inactive |
| STT3A | 0 | 16.2 | 37.6 | -5.3 | inactive |
| CNGB3 | 0 | 14.4 | 24.8 | 3.9 | inactive |
| ZSCAN23 | 0 | 1.3 | -4.8 | 7.4 | inactive |
| PAIP2 | 0 | 17.2 | 20.9 | 13.4 | inactive |
| PKNOX2 | 0 | 5.4 | 10.1 | 0.6 | inactive |
| ALG1 | 0 | -2.2 | -9 | 4.5 | inactive |
